Molecular target: T1, EBP (Mus musculus, UniProt P70245)
T1 construct: active EBP was obtained from mouse microsomes; from tissue
T1 sequence (P70245 1-230): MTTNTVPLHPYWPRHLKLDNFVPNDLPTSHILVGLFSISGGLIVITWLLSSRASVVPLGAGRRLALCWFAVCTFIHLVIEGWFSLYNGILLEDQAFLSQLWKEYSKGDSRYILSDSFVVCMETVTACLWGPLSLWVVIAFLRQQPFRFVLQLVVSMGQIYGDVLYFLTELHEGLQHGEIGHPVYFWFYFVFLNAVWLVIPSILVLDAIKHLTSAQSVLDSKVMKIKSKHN
Test: EBP enzymatic assay (GC/MS)
Assay type: biochemical
Settings: 10 μM, zymostenol 25 μM

In the case of CN1CCC[C@@H]1CCO[C@](C)(c1ccccc1)c1ccc(Cl)cc1 [clemastine, Clemastine], the “inhibition of EBP enzymatic activity” value is reported as “clear inhibition”.

Reference: patent US12403104B2, “Compounds and methods of promoting myelination” (Case Western Reserve University, priority 2016, dated 2025)
